This passage reports AC50 results from PubChem BioAssay AID445 (National Center for Advancing Translational Sciences (NCATS), 2006).

Each structure is given as a SMILES string. The list shows a part of the results. Shown are side measurements of this screen, not its main read-out; they come without a call. Compounds called inactive in the main read-out are mostly missing here. The note in brackets gives the kind of curve behind each potency; many fits are weak.

The nature of the experiment: IkB Signaling. To be noted: ABC-DLBCL IkBa-CBG/CBR dual luciferase ratio (green luciferase fused to IkBa over red control in OCI-Ly3 lymphoma cells), 4 h; measured here: control luc red channel unless noted. Summed up: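 In this assay, an IκBα–CBG68 fusion accumulates when IKK-driven degradation is blocked; native CBR normalizes for cell number. OCI-Ly3 cells were treated 4 h with compound and doxycycline, then green and red light read after Chroma-Glo addition.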
The term AC50 denotes the concentration at which the activity in the assay is half-maximal. For the compound `Cc1ccc(C(C)C)c(OCC(O)CN2CC(C)OC(C)C2)c1` (configuration not stated), the half-maximal activity concentration (AC50) was 20 µM [falling, partial curve]. Consider `CCOc1ccc(NC(=O)CSc2oc(-c3cccs3)nc2S(=O)(=O)c2ccc(Cl)cc2)cc1`, for which the half-maximal activity concentration (AC50) is 7.94 µM [falling, full curve]. In the case of `NCCCCCCNS(=O)(=O)c1cccc2c(Cl)cccc12` it was 39.8 µM [falling, partial curve].

In the case of `COc1ccc(CNc2nc(-c3ccc(OC)c(OC)c3)cc(C(F)(F)F)n2)cc1`, the AC50 was 12.6 µM [falling, partial curve].

As to `CCn1ccc2cc(S(=O)(=O)N3CCC(C(=O)NCc4ccc(OC(C)C)cc4)CC3)ccc21`, the AC50 is 2.51 µM [falling, full curve].

On to `O=C(CCCc1nc2ccccc2s1)N1CCN(S(=O)(=O)c2cccs2)CC1`, for which the AC50 was 31.6 µM [falling, single point]. Regarding `COc1ccc(-c2nc3ccc(C(=O)NCc4ccccc4)cc3nc2-c2ccc(OC)cc2)cc1`, the AC50 was 20 µM [falling, single point].

Turning to `CCCSc1nnc2c(n1)OC(CC)N(C(C)=O)c1ccccc1-2` (configuration not stated), the AC50 is 20 µM [falling, single point]. For `COc1ccc(OCC(O)CNc2ccc(Br)cc2)cc1` (configuration not stated) the value was 25.1 µM [falling, partial curve]; for `O=C(CN1C(=O)COc2ccc(S(=O)(=O)N3CCCCC3)cc21)NCCc1ccc(Cl)cc1`, 25.1 µM [falling, single point]; for `COC(=O)COc1ccc(Oc2nc(NC(C)(C)C)nc(N3CCOCC3)n2)nn1`, 0.2 µM [rising, full curve].

For `CCOc1ccccc1CNC(=O)Cn1nc(C)c2nn(-c3ccc(Cl)cc3)c(C)c2c1=O`, the concentration at half-maximal activity (AC50) is 39.8 µM [falling, single point]. In the case of `CCOc1ccc(-c2nnn(CC(=O)c3ccc4c(c3)OCCO4)n2)cc1` it was 31.6 µM [falling, single point]; in that of `Cc1ccc2[nH]c(=O)c3cc(C(=O)N4CCN(c5ccccc5F)CC4)sc3c2c1`, 1.58 µM [falling, partial curve]. In the case of `CCC(C)NC(=O)c1sc2nc(C)c(C(=O)Nc3ccc(C)cc3C)c(-c3ccc(Br)cc3)c2c1N` (configuration not stated) it was 5.01 µM [falling, full curve, poor fit].

Consider `COc1ccc(-c2cnc(NCc3ccc(C)cc3)n2C)cc1`, for which the concentration at half-maximal activity (AC50) is 10 µM [falling, partial curve, poor fit]. In the case of `COc1ccc(OC)c(-c2cc(C(=O)N3CCN(c4ncccn4)CC3)c3ccccc3n2)c1` it was 15.8 µM [falling, partial curve].
